Experimental data published in publication PMC5220304.
No constants are given. Whether binding was seen depends on the method and setting. In cells and extracts the contact can be indirect. A result given as binding can be weak or reduced; the word gives no strength.

Sequences of proteins named here, by UniProt entry; tags and fusion partners are left off. A change or cut given only in a name is not applied to a line headed by its entry.
UniProt Q336P5: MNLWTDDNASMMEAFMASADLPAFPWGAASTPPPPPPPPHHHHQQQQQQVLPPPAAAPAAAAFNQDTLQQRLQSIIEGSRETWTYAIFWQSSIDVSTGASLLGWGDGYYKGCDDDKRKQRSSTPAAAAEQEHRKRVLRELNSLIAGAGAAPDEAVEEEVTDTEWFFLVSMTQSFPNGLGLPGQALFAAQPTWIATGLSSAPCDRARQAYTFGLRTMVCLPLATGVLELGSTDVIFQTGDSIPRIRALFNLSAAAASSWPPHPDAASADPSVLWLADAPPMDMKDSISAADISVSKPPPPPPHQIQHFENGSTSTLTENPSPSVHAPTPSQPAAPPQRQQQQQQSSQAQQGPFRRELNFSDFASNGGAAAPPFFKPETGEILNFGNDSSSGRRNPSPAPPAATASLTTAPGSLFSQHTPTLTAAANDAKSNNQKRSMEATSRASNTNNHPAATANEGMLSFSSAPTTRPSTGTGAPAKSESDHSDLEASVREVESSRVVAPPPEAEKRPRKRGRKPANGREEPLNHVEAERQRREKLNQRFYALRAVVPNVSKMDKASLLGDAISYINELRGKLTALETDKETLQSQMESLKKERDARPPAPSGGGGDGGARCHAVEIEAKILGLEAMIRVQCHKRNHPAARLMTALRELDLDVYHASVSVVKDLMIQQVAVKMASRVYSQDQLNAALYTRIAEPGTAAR
UniProt Q0JP90: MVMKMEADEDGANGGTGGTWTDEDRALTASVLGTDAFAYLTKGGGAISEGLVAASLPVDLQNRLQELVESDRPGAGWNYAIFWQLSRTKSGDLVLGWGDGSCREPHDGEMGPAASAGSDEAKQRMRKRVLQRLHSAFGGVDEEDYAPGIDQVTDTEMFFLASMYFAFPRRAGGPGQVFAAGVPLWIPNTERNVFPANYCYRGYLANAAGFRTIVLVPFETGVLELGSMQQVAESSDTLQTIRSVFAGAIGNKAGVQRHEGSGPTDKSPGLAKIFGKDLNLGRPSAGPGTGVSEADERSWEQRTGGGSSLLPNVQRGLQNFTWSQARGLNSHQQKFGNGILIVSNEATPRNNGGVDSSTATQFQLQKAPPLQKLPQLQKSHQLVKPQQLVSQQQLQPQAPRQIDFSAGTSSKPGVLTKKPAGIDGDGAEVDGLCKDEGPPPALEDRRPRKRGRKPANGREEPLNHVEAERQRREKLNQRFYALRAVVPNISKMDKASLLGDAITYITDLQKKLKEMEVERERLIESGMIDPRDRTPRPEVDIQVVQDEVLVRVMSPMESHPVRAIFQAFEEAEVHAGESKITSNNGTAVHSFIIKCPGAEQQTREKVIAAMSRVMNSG

Target: OsMYC2 fused to a half of EYFP (nYFP-OsMYC2 and cYFP-OsMYC2) (rice (Oryza sativa)) (UniProt Q336P5)
Assay: split reporter; BiFC: nEYFP-fused protein, cEYFP-fused protein and DsRed1 under the CaMV 35S promoter, bombarded into onion epidermal cells; 25 °C in darkness for 24 h; YFP fluorescence by microscopy

In the case of “cYFP-OsMYL2 (OsMYC2-like protein 2 fused to cEYFP) (from UniProt Q0JP90)”, the binding was “binds”.
